The source made the active and inactive calls. No cut-off for these calls is given here.
How the values were obtained:
[1] = species on record: Mus musculus; assay: Dose of compound which caused an average weight loss >3g in a set of mice or the death of one or more of the mice in the set in the P388 NCI screen.; format: functional
How it was run: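 P388 leukemia-bearing mice, 20–22 g; one im injection daily for 9 days, compound in hydroxypropylcellulose suspension or aqueous solution. Toxic dose = lowest dose level at which ≥1 mouse died on or by day 5, or group mean weight loss >3 g; converted to μmol/kg.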

[2] = system: P388; assay: The compound was tested for its potency against lymphocytic leukemia P388 screen in mice.; format: functional, Mus musculus
[3] = system: P388; conditions: Mus musculus

`COc1c(O)cc2c(c1OC)-c1ccc(OC)c(=O)cc1[C@@H](NC(C)=O)CC2` [3-DESMETHYLCOLCHICIN] gave a Toxicity [1] of 26 µM/kg and a Potency [2] of 3.6 µM/kg.
`COc1cc2c(c(OC)c1OC)-c1ccc(OC)c(=O)cc1[C@@H](N)CC2` [DEACETYLCOLCHICINE] was tested, and the Potency [3] was “inactive” and the Toxicity [1] was 28 µM/kg.

— ChEMBL document CHEMBL1121793, “Biological effects of modified colchicines. Improved preparation of 2-demethylcolchicine, 3-demethylcolchicine, and (+)-colchicine and reassignment of the position of the double bond in dehydro-7-deacetamidocolchicines” (J Med Chem, 1981)
